According to patent US6083677A, “Photographic element containing yellow dye-forming photographic coupler” (Eastman Kodak Company, priority 1998, dated 2000):

Assay: Monochrome photographic coatings, stepwise exposure, E-6 process; Status A blue transmission density (Dmax) and activity relative to Cmp-8
[1] = Table V, silver emulsion and coupler laydown reduced to 70% of standard levels
[2] = Table IV coating set, standard levels
[3] = Table IV, standard levels, Status A blue transmission density

| SMILES | Activity Ratio: Dmax(Compound)/Dmax(Cmp8) [1] | Dmax [1] | increase in activity over comparative Cmp-8 (Table IV coating set) [%] | Activity Ratio: Dmax(Compound)/Dmax(Cmp8) [2] | Dmax [3] | increase / difference in activity (second coating set (Table V), reduced levels, vs Cmp-8 / pivaloylacetanilide couplers) [%] |
| --- | --- | --- | --- | --- | --- | --- |
| CCCCCCCCCCCCS(=O)(=O)c1ccc(NC(=O)C(Oc2ccc(S(=O)(=O)c3ccc(O)cc3)cc2)C(=O)c2c(-c3ccccc3)n(C)c3ccccc23)c(Cl)c1 (stereo not shown) [Coupler C-4] | 1.67 | 2.44 |  |  |  |  |
| CCCCCCCCCCCCS(=O)(=O)c1ccc(NC(=O)C(Oc2ccc(S(C)(=O)=O)cc2NS(C)(=O)=O)C(=O)c2c(-c3ccccc3)n(C)c3ccccc23)c(Cl)c1 (stereo not shown) [Coupler C-7] | 1.83 | 2.67 |  |  |  |  |
| CCCCCCCCCCCCS(=O)(=O)c1ccc(NC(=O)C(Oc2ccc(S(C)(=O)=O)cc2NC(C)=O)C(=O)c2c(-c3ccccc3)n(C)c3ccccc23)c(Cl)c1 (stereo not shown) [Coupler C-8] | 1.45 | 2.12 |  |  |  |  |
| CCCCCCCCCCCCNS(=O)(=O)c1ccc(NC(=O)C(Oc2ccc(S(C)(=O)=O)cc2NC(C)=O)C(=O)c2c(-c3ccccc3)n(C)c3ccccc23)c(Cl)c1 (stereo not shown) [Coupler C-9] | 1.35 | 1.97 |  |  |  |  |
| CCCCCCCCCCCCNS(=O)(=O)c1ccc(NC(=O)C(Oc2ccc(S(=O)(=O)c3ccc(O)cc3)cc2)C(=O)c2c(-c3ccccc3)n(C)c3ccccc23)c(Cl)c1 (stereo not shown) [Coupler C-10] | 1.68 | 2.45 |  |  |  |  |
| CCCCCCCCCCCCCCCCCCOc1ccc(S(=O)(=O)Nc2ccccc2Cl)cc1NC(=O)C(C(=O)N1CCc2ccccc21)N1C(=O)C(OC)N(C)C1=O (stereo not shown) [Cmp-5] |  |  | 53 | 1.53 | 4.29 |  |
| CCCCCCCCCCCCS(=O)(=O)c1ccc(NC(=O)C(Oc2ccc(C(=O)O)cc2)C(=O)c2c(-c3ccccc3)n(C)c3ccccc23)c(Cl)c1 (stereo not shown) [Coupler C-6] | 1.75 | 2.56 |  |  |  |  |
| CCCCCCCCCCCCCCCCOC(=O)c1ccc(Cl)c(NC(=O)C(Oc2ccc(S(C)(=O)=O)cc2NS(C)(=O)=O)C(=O)C(C)(C)C)c1 (stereo not shown) [Cmp-9] | 1.40 | 2.07 | 37 | 1.37 | 3.83 | 40 |
| CCCCCCCCCCCCOC(=O)c1ccc(Cl)c(NC(=O)C(C(=O)C(C)(C)C)N2C(=O)C(OCC)N(Cc3ccccc3)C2=O)c1 (stereo not shown) [Cmp-8] | 1.00 | 1.46 |  | 1.00 | 2.80 |  |
